In patent US7189518B2, “Soluble CD40L(CD154) as a prognostic marker of atherosclerotic diseases” (The Brigham and Women's Hospital, Inc., priority 2001, dated 2007):
At least one structure is not confirmed: it was looked up by name or label, or the drawing left a doubt.

Legend:
[1] = test system: human vascular EC, as well as MØ; assay: Flow cytometry of CD40 and CD40L cell surface expression; format: cell-based
Experimental: Human vascular EC and SMC were isolated from saphenous veins and cultured as described previously.^4,26 Mononuclear phagocytes (MØ) were isolated from leukocyte concentrates by density gradient centrifugation employing Lymphocyte Separation Medium (Organon-Teknika, Durham, N.C.) and were cultured (10 days) in RPMI 1640 (BioWhittaker, Walkersville, Md.) containing 2% human serum (Sigma; St. Louis, Mo.).^26 All cell types were cultured 24 h before and during the experiment in media lacking serum. Viability of the cultures was determined by trypan blue (Sigma, St. Louis, Mo.) exclusion count as well as an oligonucleosome formation assay (Cell Death Detection ELISA, Boehringer Mannheim, Germany).
Human vascular EC, SMC, or MØ were washed with ice-cold PBS, harvested by trypsinization, and fixed (PBS/4% paraformaldehyde, 15 min). Subsequently, the cells were washed once with PBS/2% BSA before being incubated (1 h, 4° C.) with either buffer alone or FITC-conjugated control IgG, mouse-anti-human CD40, or mouse-anti-human CD40L antibody (1 μg/ml; PharMingen, San Diego, Calif.). Finally, cells were washed with PBS/2% BSA and analyzed in a Becton Dickinson FACSCAN® flow cytometer employing […]® software (Becton Dickinson; San Jose, Calif.). At least 20,000 viable cells per condition were analyzed.

[2] = test system: human vascular EC, SMC, and MØ; assay: Western blot of CD40 and CD40L protein expression in cultured human vascular cells; format: cell-based; conditions: summary in the discussion, also covers RT-PCR
Experimental: Viability of the cultures was determined by trypan blue (Sigma, St. Louis, Mo.) exclusion count as well as an oligonucleosome formation assay (Cell Death Detection ELISA, Boehringer Mannheim, Germany).
Culture lysates (50 μg total protein/lane) and supernatants were separated by SDS-PAGE and blotted to polyvinylidene difluoride membranes (Bio-Rad, Hercules, Calif.) using a semi-dry blotting apparatus (3 mA/cm^2, 30 min; Bio-Rad, Hercules, Calif.). Blots were blocked and primary (mouse-anti-human CD40 or CD40L; both 1:1,000; PharMingen, San Diego, Calif.) antibodies were added in 5% defatted dry milk/PBS/0.1% Tween 20. After 1 h, blots were washed three times (PBS/0.1% Tween 20) and secondary, peroxidase-conjugated, goat-anti-mouse antibody (Jackson Immunoresearch, West Grove, Pa.) was added (1 h). Finally, blots were washed and immunoreactive proteins were visualized using the Western blot chemiluminescence system (NEN™, Boston, Mass.). Data were verified by employing anti-CD40/-CD40L antibodies from Santa Cruz (Santa Cruz, Calif.).

[3] = test system: EC, SMC, and MØ; assay: Secretion of sCD40L into culture; format: cell-based, human

| Structure (SMILES) | Order of the statins by concentration needed for equal reduction in CD40/CD40L expression [1] | Cell surface expression of both CD40 and CD40L ([1]; human vascular EC and MØ, FACS) | Constitutive as well as cytokine-induced expression of CD40 and CD40L protein and transcript [2] | sCD40L concentrations in culture [3] |
| --- | --- | --- | --- | --- |
| COCc1c(C(C)C)nc(C(C)C)c(/C=C/[C@@H](O)C[C@@H](O)CC(=O)O)c1-c1ccc(F)cc1 [cerivastatin] | cerivastatin>simvastatin=atorvastatin | concentration-dependently diminished | significantly diminished | markedly lowered |
| CCC(C)(C)C(=O)O[C@H]1C[C@@H](C)C=C2C=C[C@H](C)[C@H](CC[C@@H]3C[C@@H](O)CC(=O)O3)[C@H]21 [simvastatin] | cerivastatin>simvastatin=atorvastatin | – | – | – |
